# Assay results reported in patent publication US5962409A, “Somatostatin-analogous cyclic peptides with inhibitory activity on growth hormone” (priority 1995, dated 1999).
# Not every detail of the peptide structures is certain; ends, links or a residue may be inferred.
# System: 57 kDa complex (somatostatin receptor sub-type 2)
# Assay: Displacement of radioiodinated 11-Tyr somatostatin-14 from somatostatin receptors, 57 kDa complex (gel electrophoresis/autoradiography)
# Format: binding, rat and human
# Settings: 10^-6 M; auto-radiographies in electrophoresis
# Protocol: The study of the binding of the peptides on somatostatin receptors has been carried out according to the displacement method which consists in replacing from the receptors the radioligand (11-Tyr radioiodinated somatostatin 14-) before electrophoretic analysis on a denaturant polyacrylaminde gel (Prevost et al. European J. Cancer, 11, 1589-1592,1993).
# The biological activity was tested on rat and human cell lines, namely a GH 3 rat cell line established starting from a pituitary tumor with two 70 and 57 kDa receptors; MCF7 human cell line established starting from a pleural effusion of a breast carcinoma with two main 57 and 42 kDa receptors and human cell line established starting from a small cell carcinoma of the lung with a 57 kDa receptor.
# The tested peptides were suspended in 0.1% acetic acid at the final concentration of 10 mM and stored at 4° C.
# Tests were carried out at a 10^-6 M concentration.
compound,measurement,value
CC(C)[C@@H]1NC(=O)[C@H](CCCCN)NC(=O)[C@@H](Cc2c[nH]c3ccccc23)NC(=O)[C@H](Cc2ccc(O)cc2)NC(=O)[C@@H](NC(=O)[C@H](N)Cc2ccc3ccccc3c2)CSSC[C@@H](C(=O)N[C@H](C(N)=O)[C@@H](C)O)NC1=O [Lanreotide],displacement of the 57 kDa radioligand-receptor complex,displaced
